PubChem BioAssay AID1259308 – NCATS | 2017

Assay: 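Candidate targets for better recombinant protein yield in mammalian cells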 (primary screen)
System: human HEK293 embryonic kidney cells stably expressing firefly luciferase (HEK-CMV-Luc2-Hygro)
Knock-down reagent: single siRNA against human genes, 0.8 pmol siRNA per well
Timing: 72 h
Measured: 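Reporter luminescence and viable-cell signal on separate replicate plates, given as percent of non-targeting control and median/MAD z-scores, plus per-cell luciferase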
Scale: total luciferase, z-score and total luciferase, % of control: higher = more reporter protein produced
Active means: 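Active when the median/MAD z-score for overall luciferase is greater than 3; a gene was taken forward for validation with new siRNAs if at least two of its three siRNAs passed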
Calls: active = raised luciferase; inactive = no rise
Here is an unselected part of about 59,000 reagents tested. About 1,510 of all reagents (2.6%) were called active. 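Calls use total luciferase alone and ignore viability, so some active siRNAs may act by altering cell number.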 Further read-outs or replicates are left out here.

After knock-down of SLC38A9 [SID160759303] the results were total luciferase, z-score -0.541; total luciferase, % of control 71.1; inactive.
Depletion of SLC38A9 [SID160759304] gave: total luciferase, z-score 0.326; total luciferase, % of control 88.4; inactive.
Knock-down of SLC38A9 [SID160759305] came out at: total luciferase, z-score -1.06; total luciferase, % of control 60.8; inactive.
Knock-down of PGR [SID160714226] resulted in: total luciferase, z-score 0.024; total luciferase, % of control 82.4; inactive.
With knock-down of PGR [SID160714227], the record shows total luciferase, z-score 0.228; total luciferase, % of control 86.4; inactive.
After knock-down of PGR [SID160714228] the results were total luciferase, z-score 0.617; total luciferase, % of control 94.2; inactive.
After knock-down of LCN12 [SID160725042], the record shows total luciferase, z-score -1.31; total luciferase, % of control 55.8; inactive.
With knock-down of LCN12 [SID160731016] the results were total luciferase, z-score -0.275; total luciferase, % of control 76.4; inactive.
After knock-down of LCN12 [SID160763824] the results were total luciferase, z-score -1.58; total luciferase, % of control 50.4; inactive.
FSTL5 [SID160745203] scored total luciferase, z-score 0.263; total luciferase, % of control 87.1; inactive.
FSTL5 [SID160745204] gave total luciferase, z-score -0.0274; total luciferase, % of control 81.3; inactive.
With knock-down of FSTL5 [SID160745205], the record shows total luciferase, z-score -0.872; total luciferase, % of control 64.5; inactive.
Against GPR31 [SID160723806], the values are total luciferase, z-score -2.67; total luciferase, % of control 28.7; inactive.
GPR31 [SID160723807] scored total luciferase, z-score 0.323; total luciferase, % of control 88.3; inactive.
GPR31 [SID160773533] scored total luciferase, z-score -2.13; total luciferase, % of control 39.5; inactive.
Knock-down of TSEN15 [SID160755437] came out at: total luciferase, z-score 0.191; total luciferase, % of control 85.7; inactive.
With knock-down of TSEN15 [SID160755438], the record shows total luciferase, z-score -0.588; total luciferase, % of control 70.2; inactive.
TSEN15 [SID160755439] showed total luciferase, z-score 0.171; total luciferase, % of control 85.3; inactive.
For SLC22A17 [SID160740573] the deposit lists total luciferase, z-score -0.67; total luciferase, % of control 68.6; inactive.
Knock-down of SLC22A17 [SID160740574] came out at: total luciferase, z-score -0.924; total luciferase, % of control 63.5; inactive.
Depletion of SLC22A17 [SID160740575] gave: total luciferase, z-score -0.981; total luciferase, % of control 62.4; inactive.
ADAMTS13 [SID160729926] gave total luciferase, z-score 1.75; total luciferase, % of control 117; inactive.
ADAMTS13 [SID160729927] gave total luciferase, z-score -0.199; total luciferase, % of control 77.9; inactive.
With knock-down of ADAMTS13 [SID160729929], the record shows total luciferase, z-score 0.115; total luciferase, % of control 84.2; inactive.
Silencing of TRHR [SID160718336] came out at: total luciferase, z-score 0.76; total luciferase, % of control 97; inactive.
With knock-down of TRHR [SID160718337] the results were total luciferase, z-score 0.0878; total luciferase, % of control 83.6; inactive.
TRHR [SID160718338] gave total luciferase, z-score -0.736; total luciferase, % of control 67.2; inactive.
For MLLT11 [SID160729633] the deposit lists total luciferase, z-score 0.273; total luciferase, % of control 87.3; inactive.
Against MLLT11 [SID160729635], the entry reads total luciferase, z-score -0.159; total luciferase, % of control 78.7; inactive.
MLLT11 [SID160729636] gave total luciferase, z-score 0.326; total luciferase, % of control 88.4; inactive.
Depletion of SRSF4 [SID160716611] came out at: total luciferase, z-score 0.517; total luciferase, % of control 92.2; inactive.
Silencing of SRSF4 [SID160716612] gave: total luciferase, z-score -0.632; total luciferase, % of control 69.3; inactive.
SRSF4 [SID160716613] gave total luciferase, z-score -0.365; total luciferase, % of control 74.6; inactive.

Only “total luciferase, z-score” (5 entries from above):
LCN12 [SID160725042] = -1.31
LCN12 [SID160731016] = -0.275
LCN12 [SID160763824] = -1.58
FSTL5 [SID160745203] = 0.263
FSTL5 [SID160745204] = -0.0274
